Source: patent publication US20060057679A1
These are yes or no findings as the source states them, for the method shown. Some entries that bind do so weakly or less than the wild type.

B1: HMGB1 A box (amino acids 9-85 of the HMGB1 sequence) (peptide)
peptide: PRGKMSSYAFFVQTCREEHKKKHPDASVNFSEFSKKCSERWKTMSAKEKGKFEDMAKADKARYEREMKTYIPPKGET
B2: HMGB1 B box (amino acids 91-169 of the HMGB1 sequence) (peptide)
peptide: DPNAPKRPPSAFFLFCSEYRPKIKGEHPGLSIGDVAKKLGEMWNNTAADDKQPYEKKAAKLKEKYEKDIAAYRAKGKPD

Legend:
[1] = biological target: RAGE-Ig fusion protein (SEQ ID NO:6) (human); assay: competition ELISA, competitor against coated HMGB1 for RAGE-Ig
[2] = biological target: RAGE-Ig fusion protein (SEQ ID NO:6) (human); assay: competition ELISA, competitor at 10 µM, RAGE-Ig at 25 nM, coated rat HMGB1
[3] = biological target: RAGE-Ig fusion protein (SEQ ID NO:6) (human); assay: competition ELISA: 25 nM RAGE-Ig preincubated with 10 uM competitor, then on coated recombinant rat HMGB1; bound RAGE-Ig detected with anti-human IgG-HRP, OD 650 nm

binding [1]	binding [2]	binding [3]	Binder
binds	binds	binds	B1
binds	binds	binds	B2
		binds	HPDASVNFSEFSKKCSER [huHMGB1-31-48]
		binds	SERWKTMSAKEKGKFEDM [huHMGB1-46-63]
		binds	EDMAKADKARYEREMKTY [huHMGB1-61-78]
		binds	SIGDVAKKLGEMWNNTAA [huHMGB1-121-138]
		binds	TAADDKQPYEKKAAKLKE [huHMGB1-136-153]
		binds	LKEKYEKDIAAYRAKGKP [huHMGB1-151-168]
	binds	binds	KLKEKYEKDIAAYRAKGKPDAAKKGVVKAEKSKK [HMGB1 peptide 150-183]
	binds	binds	KDIAAYRAKGKPDAAKKG [HMGB1 peptide 157-174]
